Source: PMC7858674
Results are given in words; binding and its absence hold for the method and conditions named. Some results given as binding are weak or reduced against the parent protein; the word gives no strength.

By UniProt entry, the sequences of proteins in these tests, tags left out.
UniProt Q02248: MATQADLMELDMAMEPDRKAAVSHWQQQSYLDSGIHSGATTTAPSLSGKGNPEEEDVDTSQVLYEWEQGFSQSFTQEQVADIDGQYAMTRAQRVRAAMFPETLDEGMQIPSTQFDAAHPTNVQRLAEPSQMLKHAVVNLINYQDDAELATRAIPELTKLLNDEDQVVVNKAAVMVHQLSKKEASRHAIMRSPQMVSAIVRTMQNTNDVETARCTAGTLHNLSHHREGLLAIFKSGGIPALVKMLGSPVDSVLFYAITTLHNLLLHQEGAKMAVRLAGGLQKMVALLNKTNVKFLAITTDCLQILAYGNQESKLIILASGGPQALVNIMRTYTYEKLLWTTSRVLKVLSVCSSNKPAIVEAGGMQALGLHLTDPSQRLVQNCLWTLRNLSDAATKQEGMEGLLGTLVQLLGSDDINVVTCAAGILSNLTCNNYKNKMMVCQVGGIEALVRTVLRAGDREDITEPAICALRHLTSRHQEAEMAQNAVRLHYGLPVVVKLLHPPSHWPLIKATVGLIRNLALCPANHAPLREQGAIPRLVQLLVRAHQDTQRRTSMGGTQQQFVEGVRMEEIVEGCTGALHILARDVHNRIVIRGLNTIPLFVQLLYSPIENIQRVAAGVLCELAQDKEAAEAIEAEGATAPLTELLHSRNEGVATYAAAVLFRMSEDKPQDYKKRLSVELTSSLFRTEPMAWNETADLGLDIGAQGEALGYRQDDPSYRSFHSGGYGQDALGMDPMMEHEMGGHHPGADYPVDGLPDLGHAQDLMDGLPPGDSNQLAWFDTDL
UniProt Q3TKT4: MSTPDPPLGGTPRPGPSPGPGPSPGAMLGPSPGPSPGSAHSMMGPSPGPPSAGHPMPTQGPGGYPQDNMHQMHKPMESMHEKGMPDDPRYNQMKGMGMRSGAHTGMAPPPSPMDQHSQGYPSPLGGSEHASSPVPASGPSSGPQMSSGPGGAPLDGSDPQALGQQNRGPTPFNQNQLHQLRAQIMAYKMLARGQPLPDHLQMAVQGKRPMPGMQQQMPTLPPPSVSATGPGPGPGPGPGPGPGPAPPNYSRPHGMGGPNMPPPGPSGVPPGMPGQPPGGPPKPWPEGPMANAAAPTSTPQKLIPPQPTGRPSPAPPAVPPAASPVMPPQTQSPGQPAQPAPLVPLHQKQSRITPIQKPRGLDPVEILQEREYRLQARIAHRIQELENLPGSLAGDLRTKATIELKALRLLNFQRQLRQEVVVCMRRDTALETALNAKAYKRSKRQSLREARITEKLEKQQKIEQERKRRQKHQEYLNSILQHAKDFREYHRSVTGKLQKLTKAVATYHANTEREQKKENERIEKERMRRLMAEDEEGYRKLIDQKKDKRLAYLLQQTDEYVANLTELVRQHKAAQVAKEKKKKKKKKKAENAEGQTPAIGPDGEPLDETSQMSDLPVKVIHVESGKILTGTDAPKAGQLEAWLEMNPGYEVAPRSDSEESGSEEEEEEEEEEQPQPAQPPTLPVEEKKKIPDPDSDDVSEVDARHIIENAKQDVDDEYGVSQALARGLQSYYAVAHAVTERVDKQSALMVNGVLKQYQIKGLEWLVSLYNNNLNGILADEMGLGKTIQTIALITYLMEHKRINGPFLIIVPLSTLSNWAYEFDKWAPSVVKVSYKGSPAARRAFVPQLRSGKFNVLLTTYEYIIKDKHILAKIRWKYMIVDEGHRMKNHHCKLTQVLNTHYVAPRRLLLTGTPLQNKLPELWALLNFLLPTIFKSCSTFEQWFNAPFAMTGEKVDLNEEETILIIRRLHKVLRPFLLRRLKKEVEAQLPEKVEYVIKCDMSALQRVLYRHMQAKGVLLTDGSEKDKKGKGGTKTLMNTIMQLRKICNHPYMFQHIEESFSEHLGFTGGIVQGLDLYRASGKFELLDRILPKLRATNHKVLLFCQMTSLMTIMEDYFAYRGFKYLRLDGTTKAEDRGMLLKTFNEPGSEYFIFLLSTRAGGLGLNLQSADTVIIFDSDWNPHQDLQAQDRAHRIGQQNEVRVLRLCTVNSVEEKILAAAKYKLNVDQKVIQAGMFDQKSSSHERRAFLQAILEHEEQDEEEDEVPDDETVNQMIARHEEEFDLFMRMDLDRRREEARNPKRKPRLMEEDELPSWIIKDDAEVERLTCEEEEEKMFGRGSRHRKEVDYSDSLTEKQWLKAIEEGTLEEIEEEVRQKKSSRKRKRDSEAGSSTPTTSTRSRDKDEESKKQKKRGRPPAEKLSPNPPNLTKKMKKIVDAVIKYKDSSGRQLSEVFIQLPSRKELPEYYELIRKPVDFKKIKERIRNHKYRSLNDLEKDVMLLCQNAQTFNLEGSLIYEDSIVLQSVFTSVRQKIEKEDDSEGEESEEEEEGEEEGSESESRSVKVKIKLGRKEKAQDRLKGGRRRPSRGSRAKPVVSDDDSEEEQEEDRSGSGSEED

Biological target: β-catenin (mouse (endogenous in primary murine hepatocytes)) (UniProt Q02248)
Experiment: Re-ChIP (sequential chromatin immunoprecipitation); primary murine hepatocytes treated with or without ConA (20 μg/ml) for 24 h; chromatin cross-linked with 1% formaldehyde, sonicated; first immune complexes eluted (1% SDS, 100 mM NaCO3), diluted in re-ChIP buffer and precipitated with a second antibody; read out on the Npnt promoter (Gapdh promoter as control)

- binding: binds
Substance: Brahma-related gene 1 (BRG1) (from UniProt Q3TKT4 1-1613)
